# In the supplement of paper PMC3334620:
# The full ranking holds about 33,000 sequences; the median of “E-score (-0.5 to 0.5)” is about -8e-05, and the highest 2% start at about 0.23. The list shows a part of the results.
# Biological target: T1, Nrg2 (UniProt P38082)
# T1 sequence: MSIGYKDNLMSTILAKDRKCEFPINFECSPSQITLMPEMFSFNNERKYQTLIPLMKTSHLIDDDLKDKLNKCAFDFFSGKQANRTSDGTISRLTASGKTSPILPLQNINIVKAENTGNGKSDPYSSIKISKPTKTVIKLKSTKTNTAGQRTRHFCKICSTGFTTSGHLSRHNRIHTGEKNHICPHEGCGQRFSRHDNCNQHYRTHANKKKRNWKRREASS
# Test: PBM E-score (8-mer binding enrichment) (E-score (-0.5 to 0.5)); higher = stronger / more preferred TF binding
# Conditions: protein concentration: 100 nM; construct: GST-full length
# Procedure, shortened: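 Detection of bound protein used fluorescent anti-GST, with scans normalised by masliner. The proteins were GST-tagged yeast transcription factors applied at about 100-200 nM to universal all-10-mer Agilent arrays made double-stranded by primer extension. Each ungapped eight-base word, pooled with its reverse complement, was scored with an E-score from the Universal PBM Analysis Suite.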
row,Sequence,PBM E-score
1,AAAACCCT,0.209
2,CCATTCAC,0.0939
3,CCGGGGCA,-0.0852
4,GGGCCGAC,-0.0745
5,CCCATTAC,0.0297
6,GCTGCTAC,-0.154
7,GATACTGA,0.0997
8,CGTTTACA,-0.103
9,CCATCTAG,0.0291
10,CTTGCTAA,-0.09
11,ACTCGGCG,0.00035
12,ACCAAGAT,0.138
13,AGTGAAGG,-0.00781
14,ACCGTATG,-0.0515
15,CCACCAAA,-0.023
16,AAGATTCC,0.105
17,GCTGAACC,0.0119
18,ACACCCGA,0.0989
19,GGAGTACC,-0.0929
20,ATGAAATC,0.0833
21,CGTGTATC,0.00614
22,CCAATGAA,-0.132

row,Sequence,PBM E-score
1,CCCCCTAC,-0.339
2,ATATAGTC,0.196
3,ACCACTGA,-0.12
4,GGAACCGA,-0.0524
5,CATTGACA,-0.155
6,AGTATATG,0.129
7,AGGGCGTG,-0.203
8,CGCCCGGC,-0.191
9,CCCTCGTA,0.154
10,AACGCCAT,-0.0303
11,CCAACGCG,0.0766
12,ATGACCAT,0.0513
13,AACGACGT,-0.054
14,CTGCATGA,-0.167
15,CACGAAGG,-0.00731
16,CCCCTAAC,0.0474
17,CCCGGCGA,-0.0244
18,CATCACAG,-0.0858
19,CTATCTTC,0.0958
20,ACGCGAGA,0.112
21,GCAAACGA,0.0657
22,AGGACTAT,-0.0895

row,Sequence,PBM E-score
1,GAAGCGGA,-0.00883
2,GAGCAAAC,0.0831
3,AAGTTTTA,0.121
4,GTTCGAAA,0.0894
5,ATAGGTTC,-0.00633
6,AACCCCCT,-0.311
7,TACAGTAA,-0.0867
8,CTTATGAA,-0.0316
9,CGTTATCA,-0.00641
10,ATGACGGG,0.12
11,ATTACATG,0.115
12,CATGGAAG,0.00638
13,AAAGTAGC,0.00721
14,AAGCAATC,0.0696
15,ACTCTGTA,-0.096
16,GTGGGGTA,0.164
17,AGAACTCC,-0.0878
18,GAGGTTGC,-0.133
19,AACATGAA,0.0393
20,TGTTCGAA,-0.00763
21,ACTCGTTG,-0.109
22,GAAATCGA,0.166

row,Sequence,PBM E-score
1,CCCTTCGA,-0.0402
2,AGCTTCAA,0.0248
3,TAGTGTCA,0.00857
4,AGAATCCT,-0.0503
5,ATTCACCC,0.112
6,ATTTTAAC,-0.00903
7,AAGACAGC,0.0123
8,TCCCGGAA,0.0559
9,GGAATTAC,0.0713
10,CGAGAGAA,-0.00082
11,CGAGGCAC,-0.124
12,CCGTAATA,0.12
13,CTCGTTTC,0.0803
14,TACGTTGA,0.0321
15,AATAGGAT,0.218
16,CGCTCTCA,-0.0507
17,ACTCCGTG,-0.167
18,ACCTTGTC,-0.194
19,AGAGTTCC,-0.0256
20,AGAGTCCG,-0.118
21,GATATACA,0.0803
22,ATTACGCA,0.171

row,Sequence,PBM E-score
1,CTATGCCC,-0.0683
2,AAACTGGG,-0.0257
3,GACCATCC,0.0166
4,ATTCCATG,0.183
5,AAACCTCT,0.0073
6,CGAGGTCC,0.0854
7,GGGTGATA,0.00288
8,CTCCTAAG,-0.205
9,CACAGACA,0.118
10,CCGATAAA,-0.086
11,ATGCATTG,0.0223
12,AGGGGCCG,-0.225
13,CAGATGGA,0.187
14,CGCGATAA,0.0712
15,TGACAGAA,0.0851
16,ATGAAAAC,0.203
17,AACAGGTC,-0.119
18,ACTACACA,0.221
19,ATGTCTGC,0.0614
20,GCACTATA,0.125
21,AACGACCC,0.111

# Single values from the entries so far.
# In PBM E-score, ATTCCATG has the entry 0.183
# In PBM E-score, CGAGGTCC has the entry 0.0854
# In PBM E-score, CGCGATAA has the entry 0.0712
# In PBM E-score, AACGACCC has the entry 0.111
# In PBM E-score, AAACTGGG has the entry -0.0257
# In PBM E-score, GACCATCC has the entry 0.0166
# In PBM E-score, CTCCTAAG has the entry -0.205
